# Results as given in PubChem BioAssay AID1347426 (Functional Genomics Laboratory (NCATS/FGL), 2020).
# About 1,400 (4.5%) of roughly 31,000 sequences were called active.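 The calls were made as follows: active = median seed-adjusted z-score above 1 or below -1; inactive = the rest.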 Some of the results follow.
# Experiment: Novel Modifiers of Survival Motor Neuron (SMN) Protein: Gene Identification via Genome-wide siRNA Screen;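 also: luminescence tracks full-length SMN protein made from the SMN2 reporter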
# Conditions: HEK293T SMN2-luciferase reporter, siRNA knockdown, 72 h; actives lie on both sides
# Procedure, shortened: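 Luciferase signal, proportional to full-length SMN made from an SMN2 cDNA reporter in stable HEK293T cells, was read 72 h after siRNA reverse transfection. Values were expressed as MAD scores after non-targeting-control normalization and log10 conversion; seed analysis flagged off-targets.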
row,Sequence,median seed-adjusted z-score
1,GCUCUAGCCUGUAAGUAUATT against PDHA1,inactive: 0.346
2,GGCAAGAGCUUGUAUCCAATT against CCNG1,inactive: 0.131
3,GGGAGUACAUCUACAUGCATT against KEAP1,inactive: 0.207
4,GUCUUCAUGUAUGUCUUUUTT against GJB1,inactive: 0.152
5,GAAUCCAGAUGACAGAUUATT against CDKL4,inactive: 0.13
6,CUCGAGAAAUUGUCACGUATT against DYNC1I2,inactive: -0.167
7,GGACUGCAGCUCAUACCUATT against OTX1,inactive: -0.475
8,AGAGAGAGCUUCAAAAUUATT against PPP1R14C,inactive: -0.316
9,CGUUGUUUUUGAGCACGUUTT against LMBR1,inactive: 0.236
10,GCCUAAUGAUGGAAAGAUUTT against ZNF643,inactive: -0.0134
11,CAAAGGAUAGCUUCUUUUUTT against RASL10B,inactive: -0.377
12,GCCUCAGACAAGAUUGAAATT against COX11,inactive: -0.317
13,GGAAAAUCAUUGUGCUAAUTT against VN2R1P,inactive: -0.25
14,GAACAACCUUCAUUGGAAUTT against ZC3HC1,inactive: -0.859
15,AGAGAAAAACUGGACAAAATT against TFAP2A,inactive: -0.384
16,GGGCACCAGUGGUAAGACATT against NFKBIE,inactive: -0.452
17,GCUUUUACUUCUAAUCGAATT against ZNF660,inactive: 0.251
18,GCCUAUGAGUGUGAGAAGATT against ARID3B,inactive: -0.0846
19,GCUCCAUCCUCAAUGAGUATT against MPN2,inactive: 0.108
20,GGAGAUAUUUUUGACGGAATT against ZFHX3,inactive: 0.045
21,GCUUAAUGGUGUCCCGUAATT against PCCA,inactive: 0
22,GCUUGAUGCUGAACAACAATT against LRRN1,inactive: -0.407

row,Sequence,median seed-adjusted z-score
1,GGAUGGGUCUCCUACUACATT against SLC40A1,inactive: -0.177
2,GGCAAAAGGUCAUCCCAGATT against CAPN5,inactive: 0.535
3,GCAUCUAUGUCAACAAGAUTT against POLR2I,active: -3.27
4,GCAGGCAACUAACACGGAATT against TPPP,inactive: -0.16
5,ACAAUCCAAUGAUACAGAATT against RNF113A,inactive: -0.128
6,GUCCGUGGGUGAUAAUUGATT against VWA1,inactive: 0.289
7,GAUCAAGCCUAAAGAUACATT against DAPK1,inactive: 0.27
8,GGGACAAUUUGCUAGCUUATT against SLC6A14,inactive: 0
9,GGAACAGACGAGUACAACATT against PRKCSH,inactive: -0.0512
10,AGAUGCAGAAUGUCAUGUATT against KCNN3,inactive: -0.625
11,GCAUGGACGUGAUUUUGGUTT against DNMT3L,inactive: 0.0651
12,CCUCCGCUGUGACCUUUGATT against NHLRC1,inactive: -0.582
13,CAAGCAAGAGAUUAGUGAATT against ZNF436,inactive: 0.00767
14,CUUCAUAUCUUAAUAGUCATT against ZNF121,inactive: 0.0687
15,GAGCUGAGCUGUCGAUAUATT against SUPT6H,active: -2.54
16,CCAUCCCAAAUUUACAACATT against SARS2,inactive: 0.524
17,GCACCACAACUCUACUGUATT against ETNK1,inactive: 0.299
18,CUGAUAGGCCCAAAGCUGATT against CABP4,inactive: 0.146
19,AGACAAGAAGUGCAAGUCUTT against ART1,inactive: 0.0033
20,GACACGAUUCUUUACCAAATT against CHEK1,active: -5.1
21,GAACAUUGGUAAUUAAACUTT against PCDHA4,inactive: -0.268
22,CCAUCCUUACAUGAGCAUATT against MAPK6,inactive: -0.156

row,Sequence,median seed-adjusted z-score
1,AGUCUACGAGAACUACUGATT against CHST11,inactive: -0.275
2,GAGUUGCGAUUAUCAGUCUTT against STX7,inactive: 0.251
3,CAUCCAAGAUUAUAGUGGATT against PNLIP,inactive: 0.385
4,GCACUUUACCACAAUCUCATT against FCAMR,inactive: 0.137
5,AUGUCUAGCAAAUCCAAAATT against GATA3,inactive: -0.197
6,UGGGUUGGAUGAUACCUUATT against GATA5,inactive: 0.15
7,GGCAAUUCUAAGUACCAGATT against GTF2B,inactive: -0.855
8,UCAUCGACUUGACCAACAATT against LCN9,inactive: -0.897
9,CAUCUGCAUUGAUAGCGUATT against CRIM1,inactive: -0.155
10,GAGAAACUAGAAUACAGAATT against ADPRH,inactive: -0.406
11,AGCUCGUACUGUUCCAAUATT against MMP19,inactive: 0.43
12,GGAGGGAUGGUUACUGUUATT against TOX4,inactive: 0
13,CCGAGGAGCUGAUUCAGGATT against RABEP2,inactive: -0.0546
14,AGAGAGAAAUUGUGCGAGATT against ACTG2,inactive: 0.157
15,CAACAUUGGAAAAUACAGATT against LAP3,inactive: 0.0175
16,GGACUGAAAUACGAAAGUUTT against TBCEL,inactive: 0.567
17,CGGAAUACCAGGAACUUAATT against TSHR,inactive: 0.851
18,CGCUCAACGUGGAUCAUUUTT against CAMTA2,inactive: 0.152
19,GGAUGUGGUUUAUUAUACATT against SLC16A9,inactive: 0.125
20,ACAAGAUCCCGUUAAAGGATT against PI3,inactive: 0.493
21,GGAUAUUAAGGACAGGAAATT against RAN,active: -3.09
22,GAUCGACAACAACCCGUUUTT against TBX2,inactive: 0.42

row,Sequence,median seed-adjusted z-score
1,CUGUCGCUGUCUGACCAGATT against ESRRA,inactive: -0.833
2,GGAAAGAAAUCACCUAAGATT against TBX19,inactive: 0.327
3,GCUUCUCGUUGGGUACCGUTT against ACTRT2,inactive: -0.117
4,CGAUGGAGAUGUUUCGGGATT against KCNA2,active: -1.03
5,GAGUUUUUAUGGACUCUCATT against GRIK4,inactive: 0.249
6,GCAGUAUGAGGGUCCCACATT against IL12RB1,inactive: -0.126
7,AGCUCAUCCUGAUGCUGAATT against JDP2,inactive: -0.202
8,GGCUCAUUCUACUCAGGGATT against BAHCC1,inactive: 0
9,CUGUGAAAAUGGGACGGGATT against NDUFA6,inactive: -0.457
10,CCGCAGUUCUAGGUCCAAUTT against ABCC2,inactive: -0.0464
11,GCACAAUUAUUUCACGCUUTT against ETNK2,inactive: -0.74
12,CACCCACCUCAGAUUGAUATT against MBTPS2,inactive: -0.324
13,AACUUGUCGCUGCCCAAUATT against ABCA2,active: -1.18
14,GGAUACUUGUGGUUGACUUTT against ERCC4,inactive: -0.00878
15,CAACUUCGAUAAAGAGCUUTT against HSFX1,inactive: 0.0575
16,CAGCAACUGAAAUACGGAATT against RXFP1,inactive: 0.314
17,CGGUUUACUUUGCCGAAGATT against CSRP1,inactive: -0.312
18,GCCUCAUCGUUCUGCAGAATT against ZNF628,inactive: -0.121
19,CAAUCCAGCUAAUCCAGAATT against NRAS,inactive: -0.581
20,GGUCUGACUUGGUGGACAATT against CPEB1,inactive: -0.349
21,ACCGAAUGCUGGAUCUUUATT against ABAT,inactive: 0.0191
22,GGUUUUUGCUGGACAAACATT against PPP2R3C,inactive: 0.295

# Quoted at random: seven entries already listed
row,Sequence,median seed-adjusted z-score
11,AGCUCGUACUGUUCCAAUATT against MMP19,inactive: 0.43
20,ACAAGAUCCCGUUAAAGGATT against PI3,inactive: 0.493
4,GUCUUCAUGUAUGUCUUUUTT against GJB1,inactive: 0.152
16,CAGCAACUGAAAUACGGAATT against RXFP1,inactive: 0.314
16,GGACUGAAAUACGAAAGUUTT against TBCEL,inactive: 0.567
4,GCAGGCAACUAACACGGAATT against TPPP,inactive: -0.16
2,GGCAAGAGCUUGUAUCCAATT against CCNG1,inactive: 0.131

# A few values from above.
# For median seed-adjusted z-score, GCUUCUCGUUGGGUACCGUTT against ACTRT2 shows inactive: -0.117
# For median seed-adjusted z-score, GAACAUUGGUAAUUAAACUTT against PCDHA4 shows inactive: -0.268

# (further entries)

row,Sequence,median seed-adjusted z-score
1,CACCUGAACUUAUUGUCUUTT against SCARA5,inactive: -0.278
2,GGACAUCUAUUGGACCGUUTT against GFRA3,inactive: -0.326
3,CGUGAUAGGGAGAACCGCATT against GPR97,inactive: -0.0155
4,CGUCAGUGCUUCGCAUACATT against ZBTB45,inactive: 0
5,AGACUAACAUUGACCGGCUTT against ACTN3,inactive: -0.109
6,AAAUGUCUAUUGCCGUAAATT against TUBA1C,inactive: 0.157
7,GGAGGGACAAGAUCAACAATT against USF2,inactive: 0.352
8,GGAUCAAUCUUCUCAGGCATT against NEUROD1,inactive: 0
9,GCCUAAAGCCGACAUUUAUTT against MOS,inactive: 0.105
10,GGACAGAUCUACUACCUGATT against TMED2,inactive: 0.288
11,CCAGAAGAUUGACAAAUCUTT against ADRB2,inactive: 0.0987
12,ACAAGGUCCUAGAUAUGGATT against GPR113,inactive: -0.434
13,GCAAUGCCCUCUAUCAAUATT against IP6K1,inactive: -0.317
14,ACACUGCGCUGGUUGAAAATT against FGFR1,inactive: -0.562
15,CCAAGAUUCAAAACACGAATT against B4GALT2,inactive: -0.0367
16,GCUCAGCUCUUUGAAACAUTT against RAB24,inactive: 0.123
17,GAAAUAGUCUAGUAAGCUUTT against PDE7A,inactive: 0.861
18,GAAUUGCUCCACCAGAUAATT against NAALAD2,inactive: -0.00068
19,GAAAUUGACAUGUUGGAUATT against ANXA4,inactive: -0.0932
